The experiment in a line: qHTS Assay for Modulators of Lamin A Splicing. To be noted: HeLa LMNA splicing GFP/RFP minigene ratio, 48 h. An excerpt: NCGC Assay Overview: Hutchinson-Gilford Progeria Syndrome (HGPS) is a pediatric premature aging disease caused by a spontaneous mutation in the lamin A/C (LMNA) gene. The mutation activates a cryptic splice site in the LMNA pre-mRNA which results in production of a pre-lamin A protein that cannot be processed properly. The mutant protein accumulates in the nucleus and negatively affects numerous cellular functions. Correction of the splicing defect in HGPS patient cells using a targeted oligonucleotide (exo11) leads to reversal of the cellular disease phenotypes. To identify small molecule modulators of aberrant LMNA splicing, a homogenous assay was constructed in HeLa cells that used a GFP containing minigene to report on correction of aberrant splicing in lamin A and a RFP (DsRed2) to report on cell viability, uniformity and nonspecific effects on the assay signal. This assay was adapted to laser-scanning microplate cytometry (Acumen, TTP Labtech) where miniaturization of the assay to a 1,536-well plate format was possible. References: Bowen, W. P.; Wylie, P. G. Application of Laser-Scanning Fluorescence Microplate Cytometry in High Content Screening. Assay Drug Dev Technol 2006;4:209-221. Scaffidi P, Misteli T. Reversal of the cellular phenotype in the premature aging disease Hutchinson-Gilford progeria syndrome. Nat.
NCGC Assay Protocol Summary: Reagents/Controls: Stable clones expressing DsRed2 and lamin A-EGFP were generated by Cell and Molecular Technologies in S3 HeLa cells. HeLa cells were prepared for the assay when they were 70-90% confluent. The cells were counted and resuspended in Opti-MEM I (no phenol red; Gibco), 2% FBS, 1% penicillin/ streptomycin (Gibco) at concentration of 120 cells/uL concentration. The suspension was passed through a Falcon basket filter with pore size 40um (Beckton Dickson). Control titrations: column […] 1536-well plate contained a sixteen point titration (1:2 dilutions) in duplicate of ancitabine (Sigma: A8598) beginning at 40 uM final concentration. Column 2 contained a sixteen point titration (1:2 dilutions) of cycloheximide beginning at 1.4 mM final concentration. Column 3 contained ancitabine at 40 uM and column 4 contained was the vehicle control (0.5% DMSO final concentration). Assay Steps: 5 uL of HeLa cells were plated in Aurora LoBase black clear bottom (cyclic-olefin polymer) 1536-well plates at a final density of 600 cells/well. Controls and library compounds were added with a 1536-well pin array using the Kalypsys pin-tool. The plates were then incubated for 48 hrs in a cell-culture incubator (37 °C; 5% CO2, 98% humidity). Following incubation the plates were read on the Acumen Explorer using the 488 nm laser. Data was collected on objects between 10 and 100 um in size. Cell objects were defined by a 15 um width x 10 um depth filter. The ratio of the total object intensity in PMT1 (500-530 nm emission; GFP) over PMT3 (575-640 nm emission; RFP) was calculated for analysis. Keywords: NIH Roadmap, MLSCN, MLI, MLSMR, qHTS, NCGC, lamin A, Progeria, RNA splicing.
A general note: Quantitative high-throughput screening tests each substance at several concentrations.

[1] abbreviates: measured here: GFP splicing reporter channel.
Where [2] appears, read: measured here: RFP viability control channel.

The other results are listed elsewhere or left out. Shown are side measurements of this screen, not its main read-out; they come without a call. Most of these compounds were active or inconclusive in the main read-out, so they are no random draw. Potencies come from curve fits of mixed quality, noted in brackets.

As usually defined, the AC50 is the concentration giving half of the maximal activity seen.

Take `Fc1ccc2[nH]c3c(N4CCN(c5ccccc5)CC4)ncnc3c2c1`: the concentration at half-maximal activity (AC50) by setting is: under setting [1], 3.16 µM [rising, full curve]; under setting [2], 2.82 µM [rising, full curve].

Take `CCOc1ccc(Br)cc1S(=O)(=O)N1CCC(C(=O)O)CC1`: the half-maximal activity concentration (AC50) under setting [2] was 0.00794 µM [falling, full curve, poor fit]. As to `COc1ccccc1N(CC(=O)N/N=C/c1c(O)ccc2ccccc12)S(C)(=O)=O`, the half-maximal activity concentration (AC50) under setting [2] was 31.6 µM [rising, single point].

Regarding `O=C(NCCN1CCOCC1)Nc1ccc(Cl)cc1Cl`, the AC50 was 35.5 µM [falling, single point] under setting [1] and 35.5 µM [falling, single point] under setting [2]. With `COc1ccc(N2CCN(C(=O)c3c(-c4ccccc4)noc3C)CC2)cc1`, the AC50 under setting [2] was 22.4 µM [rising, single point].

With `Cc1ccc(NC(=S)NNC(=O)c2ccc(N3CCOCC3)c([N+](=O)[O-])c2)cc1Cl`, the half-maximal activity concentration (AC50) by setting is: under setting [1], 31.6 µM [rising, single point]; under setting [2], 31.6 µM [rising, single point]. Regarding `Cc1ccc(O)c(N=Cc2cc(Cc3ccccc3)cc([N+](=O)[O-])c2O)c1`, under setting [1], the AC50 was 0.0355 µM [falling, full curve, poor fit].

On to `CC1=C(C(=O)Nc2ccccc2)C(c2cc(Br)ccc2F)n2ncc(C(=O)Nc3ccccc3)c2N1` (stereo not given), for which the AC50 runs as follows: under setting [1], 0.01 µM [falling, full curve, poor fit]; under setting [2], 0.01 µM [falling, full curve, poor fit]. Turning to `COc1cccc(NC(=O)N(Cc2cc3cc(C)cc(C)c3[nH]c2=O)CC2COCCO2)c1` (stereo not given), the AC50 under setting [2] is 11.2 µM [rising, partial curve]. As to `CC1CN(C(=S)SCC(=O)c2ccc(Cl)cc2)CC(C)O1` (stereo not given), the AC50 runs as follows: under setting [1], 11.2 µM [rising, single point]; under setting [2], 15.8 µM [rising, partial curve]. As to `O=C(Nc1nc(COc2ccccc2)cs1)c1ccccc1F`, the AC50 under setting [1] was 31.6 µM [rising, single point] and the half-maximal activity concentration (AC50) under setting [2] is 31.6 µM [rising, single point]. `Cc1c(C(=O)OCC(C)C)[nH]c2c1C(=O)CC(c1cccs1)C2` (stereo not given): under setting [2], the AC50 is 1.58 µM [rising, full curve]. On to `CC(C)=C1C2CCC1C1C(=O)N(CCc3ccccc3)C(=O)C21` (stereo not given), for which the concentration at half-maximal activity (AC50) is 15.8 µM [rising, single point] under setting [1] and 14.1 µM [rising, single point] under setting [2]. For the molecule `O=C(Nc1cccc(-c2cn3ccccc3n2)c1)c1ccccc1`, the AC50 by setting is: under setting [1], 0.0141 µM [falling, full curve, poor fit]; under setting [2], 0.02 µM [falling, full curve]. `COc1cc(/C=C2/NC(=O)N(Cc3ccccc3F)C2=O)ccc1Oc1ccc([N+](=O)[O-])cn1`: the half-maximal activity concentration (AC50) is 2.82 µM [rising, full curve] under setting [1] and 17.8 µM [rising, single point] under setting [2].

As to `Cc1ccc2c(c1)c(=O)c(Br)c(C)n2Cc1ccccc1`, the concentration at half-maximal activity (AC50) was 0.141 µM [rising, full curve, poor fit] under setting [1] and 25.1 µM [rising, partial curve, poor fit] under setting [2]. With `CCOC(=O)C1=C(N)N(c2ccc(C)cc2)C2=C(C(=O)CCC2)C1c1cccs1` (stereo not given), the half-maximal activity concentration (AC50) under setting [2] was 12.6 µM [rising, partial curve]. Regarding `COc1ccccc1N(CC(=O)NCc1ccc(F)cc1)C(=O)CCC(=O)Nc1ccccn1`, the AC50 under setting [1] is 1.58 µM [falling, single point].

For the molecule `COc1ccc(-n2cnc3sc4c(c3c2=O)CCCC4)cc1`, the AC50 under setting [2] is 11.2 µM [rising, partial curve, poor fit].

In the case of `O=c1c(-c2ccccc2)c(O)c2cccc3c2n1CCC3`, the concentration at half-maximal activity (AC50) under setting [2] is 0.0447 µM [falling, full curve, poor fit].

Take `Clc1ccc(CON/C=N/c2ncnc3sccc23)c(Cl)c1`: under setting [2], the AC50 was 10 µM [rising, partial curve]. With `O=C(COc1ccc(Cl)cc1)NCC(c1ccco1)S(=O)(=O)c1ccc(Cl)cc1` (stereo not given), the AC50 under setting [1] was 35.5 µM [falling, single point]. Regarding `Cn1ccnc1C(=O)c1cc(SCC(=O)NCc2ccccc2)nc2ccccc12`, the AC50 under setting [1] was 6.31 µM [rising, single point] and the half-maximal activity concentration (AC50) under setting [2] is 4.47 µM [rising, full curve, poor fit].

Regarding `O=[N+]([O-])c1ccc(/C=N/n2cnc3ccccc32)s1`, under setting [1], the AC50 is 35.5 µM [falling, single point]. For `Cn1c(=O)c2c(nc(NCc3ccc4c(c3)OCO4)n2Cc2ccc(F)cc2)n(C)c1=O`, the AC50 by setting is: under setting [1], 35.5 µM [falling, single point]; under setting [2], 35.5 µM [falling, single point]. With `COc1ccc(N(C)S(=O)(=O)c2cccc(C(=O)OC(C(=O)Nc3cc(C)cc(C)c3)c3ccccc3)c2)cc1` (stereo not given), the AC50 by setting is: under setting [1], 7.08 µM [rising, partial curve, poor fit]; under setting [2], 0.355 µM [rising, full curve, poor fit]. As for `Cc1cc(C)cc(N(CC(=O)NC(C)(C)C)C(=O)CNC(=O)c2cccs2)c1`, the AC50 by setting is: under setting [1], 1.26 µM [falling, partial curve, poor fit]; under setting [2], 0.316 µM [falling, full curve, poor fit]. As to `CCOC(=O)c1sc2c(c1C)C(c1cccs1)C1=C(CCCC1=O)N2` (stereo not given), the concentration at half-maximal activity (AC50) reads like this: under setting [1], 20 µM [rising, single point]; under setting [2], 22.4 µM [rising, single point]. `CC(C)CNC(=O)CSc1nc2scc(-c3ccccc3)c2c(=O)[nH]1`: the AC50 was 0.141 µM [rising, full curve] under setting [1] and 14.1 µM [rising, partial curve] under setting [2]. In the case of `COC(=O)c1c(-c2ccccc2)c(-c2ccccc2)nn(C)c1=O`, under setting [2], the AC50 is 1.12 µM [falling, full curve, poor fit].

Regarding `COCc1cc(Sc2ccc(Cl)cc2Cl)nc(-c2ccccc2)n1`, the half-maximal activity concentration (AC50) under setting [2] was 0.0224 µM [rising, full curve, poor fit]. Still for that read-out and setting: in the case of `Cc1[nH]n(-c2ccccc2)c(=O)c1/C=N/Nc1nncc(-c2ccccc2)n1` it was 11.2 µM [rising, partial curve, poor fit]. On to `O=C1OCCN1CCNCc1cn(-c2ccc(F)cc2)nc1-c1ccccc1Cl`, for which the concentration at half-maximal activity (AC50) under setting [1] was 0.00891 µM [falling, full curve, poor fit] and the AC50 under setting [2] is 14.1 µM [falling, partial curve, poor fit].

The values are drawn from PubChem BioAssay AID1487 (National Center for Advancing Translational Sciences (NCATS), 2009).
